Laboratory results reported in US9133220B2, “Boron-containing 5-arylidene-3,5-dihydro-4H-imidazol-4-ones” (Evrogen Joint Stock Company, priority 2012, dated 2015).

Tested on: cell membranes of HeLa Kyoto and HEK293 cell lines
Assay: Staining of cell membranes and comparison of photostability with EGFP
Assay type: cell-based, human
Conditions: 5 μM; cells expressing EGFP-XRCC
Method: Human cell cultures HeLa and HEK293 were grown in standart conditions and analyzed by wide field fluorescent and confocal laser scanning microscopy (excitation at 488 nm, detection at 500-540 nm).
The cell staining of the cells, temporarily expressing chimer protein EGFP-XRCC (nuclear localization), was carried out by p-diethylamino-BDI-BF2 in concentration 5 μM to compare fluorescent properties of the compound p-diethylamino-BDI-BF2 to the green fluorescent protein EGFP.

SMILES: CCN(CC)c1ccc(/C=C2\N=C(C)N(C)C2=O)c(B(F)F)c1 [p-diethylamino-BDI-BF2, (Z)-4-(4-(diethylamino)-2-(difluoroboryl)benzylidene)-1,2-dimethyl-1H-imidazole-5(4H)-one]
- decrease of fluorescence intensity during the half-life time of EGFP under outer radiation: 5-10%
